From doi:10.1101/2025.09.08.674928 come the findings set out here.

These are yes or no findings as the source states them, for the method shown. In cells and extracts the contact can be indirect. Here binding means that the protein was enriched with, or labelled near, the bait; the list need not be complete.

The target in the test is SARS-CoV-2 Nsp3 (from virus infection) (SARS-CoV-2) (UniProt P0DTD1). Description: affinity purification with mass spectrometry.

Turning to “enolase 1 (ENO1) (from UniProt P06733 1-434) (enzyme)”, the binding result is “binds”.

“glyceraldehyde-3-phosphate dehydrogenase (GAPDH) (from UniProt P04406 1-335) (enzyme)”: the binding result is reported as “binds”.
